In article PMC5596601:
Results are given in words; binding and its absence hold for the method and conditions named. Binding seen in cells or lysates may run through a third protein. Some entries that bind do so weakly or less than the wild type.

By UniProt entry, the sequences of proteins in these tests, tags left out. Residues count along the entry.
UniProt O14763, residues 56-440: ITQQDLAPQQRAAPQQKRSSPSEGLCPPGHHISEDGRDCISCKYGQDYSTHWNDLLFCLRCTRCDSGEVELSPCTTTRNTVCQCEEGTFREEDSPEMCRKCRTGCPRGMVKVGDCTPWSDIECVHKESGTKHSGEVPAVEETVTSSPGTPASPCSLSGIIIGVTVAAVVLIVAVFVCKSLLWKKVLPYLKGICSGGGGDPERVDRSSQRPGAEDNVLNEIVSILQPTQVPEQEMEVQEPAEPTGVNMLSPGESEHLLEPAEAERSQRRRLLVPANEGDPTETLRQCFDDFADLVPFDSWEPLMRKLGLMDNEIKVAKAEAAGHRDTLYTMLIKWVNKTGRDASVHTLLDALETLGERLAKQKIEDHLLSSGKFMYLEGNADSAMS
UniProt O00220, residues 24-468: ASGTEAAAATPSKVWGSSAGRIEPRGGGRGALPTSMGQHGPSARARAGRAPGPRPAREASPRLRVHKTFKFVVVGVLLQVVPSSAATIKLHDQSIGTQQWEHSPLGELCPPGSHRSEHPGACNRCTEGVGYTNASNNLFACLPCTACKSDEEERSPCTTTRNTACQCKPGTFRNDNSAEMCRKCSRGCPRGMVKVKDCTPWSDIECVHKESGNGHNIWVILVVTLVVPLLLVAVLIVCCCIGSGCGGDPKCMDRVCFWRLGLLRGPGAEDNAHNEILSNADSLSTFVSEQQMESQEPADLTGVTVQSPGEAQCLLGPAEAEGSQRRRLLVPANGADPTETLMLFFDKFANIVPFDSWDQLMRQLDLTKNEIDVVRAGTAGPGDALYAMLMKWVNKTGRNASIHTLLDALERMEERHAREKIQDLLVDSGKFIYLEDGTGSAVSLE

Key:
[1] = molecular target: T1, RIPK1 (receptor-interacting serine/threonine-protein kinase 1) (human (endogenous in BJELR)), Q13546; test: co-IP; purified plasma membrane fraction of BJELR cells (also control and DcR2 knockout cells), naive or treated with 1 ug/ml TRAIL for 30 min; antibodies to DR5, RIPK1, TRAF2 or FADD; Western blot; conditions: remark: other sources report otherwise
T1 chain: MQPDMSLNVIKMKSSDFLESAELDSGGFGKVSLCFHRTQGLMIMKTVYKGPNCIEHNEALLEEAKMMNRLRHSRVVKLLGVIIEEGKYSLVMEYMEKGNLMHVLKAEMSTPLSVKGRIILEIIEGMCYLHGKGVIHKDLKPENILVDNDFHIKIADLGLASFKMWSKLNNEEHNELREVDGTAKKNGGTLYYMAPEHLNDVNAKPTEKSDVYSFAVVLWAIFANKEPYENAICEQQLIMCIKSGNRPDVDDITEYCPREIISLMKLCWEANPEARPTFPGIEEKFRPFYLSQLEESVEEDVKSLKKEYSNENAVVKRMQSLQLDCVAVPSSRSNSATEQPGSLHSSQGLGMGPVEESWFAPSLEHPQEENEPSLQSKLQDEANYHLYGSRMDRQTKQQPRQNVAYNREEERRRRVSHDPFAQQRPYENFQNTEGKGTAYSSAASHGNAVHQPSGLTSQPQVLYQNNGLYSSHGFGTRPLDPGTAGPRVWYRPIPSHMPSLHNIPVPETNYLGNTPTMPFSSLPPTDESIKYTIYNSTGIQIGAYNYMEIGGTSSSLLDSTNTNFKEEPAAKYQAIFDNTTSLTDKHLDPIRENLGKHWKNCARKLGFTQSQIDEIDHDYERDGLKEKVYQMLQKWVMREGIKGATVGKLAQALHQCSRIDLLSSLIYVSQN

[2] = molecular target: T2, caspase-8 (human (endogenous in BJELR)), Q14790; test: co-IP; whole-cell lysates (1% Triton X-100, 150 mM NaCl, pH 7.4) of BJELR cells, naive or treated with 1 ug/ml TRAIL for 30 min; antibodies to DR5, DR4, DcR2 or caspase-8 on protein G magnetic beads, overnight at 4 °C; Western blot; conditions: remark: other sources report otherwise
T2 chain: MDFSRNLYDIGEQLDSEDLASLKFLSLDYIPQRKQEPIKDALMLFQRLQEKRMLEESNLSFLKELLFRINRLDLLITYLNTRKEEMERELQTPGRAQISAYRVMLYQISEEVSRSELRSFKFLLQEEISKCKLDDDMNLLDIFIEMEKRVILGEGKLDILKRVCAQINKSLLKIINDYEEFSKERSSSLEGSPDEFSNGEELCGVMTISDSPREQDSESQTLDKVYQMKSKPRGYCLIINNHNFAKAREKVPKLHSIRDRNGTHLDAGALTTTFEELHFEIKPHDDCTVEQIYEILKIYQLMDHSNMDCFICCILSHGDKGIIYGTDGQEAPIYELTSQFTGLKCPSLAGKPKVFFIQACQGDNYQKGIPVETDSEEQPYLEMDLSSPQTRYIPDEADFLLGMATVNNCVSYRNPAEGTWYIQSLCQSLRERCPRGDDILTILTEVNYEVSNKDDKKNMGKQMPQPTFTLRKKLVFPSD

[3] = molecular target: Death Receptor 5 (human (endogenous in BJELR)) (UniProt O14763); test: co-IP; purified plasma membrane fraction of BJELR cells (also control and DcR2 knockout cells), naive or treated with 1 ug/ml TRAIL for 30 min; antibodies to DR5, RIPK1, TRAF2 or FADD; Western blot
[4] = molecular target: RIPK1 (receptor-interacting serine/threonine-protein kinase 1) (human (endogenous in BJELR)) (UniProt Q13546); test: as above
[5] = molecular target: T3, TRAF2 (TNF receptor-associated factor 2) (human (endogenous in BJELR)) (UniProt Q12933); test: as above
T3 sequence: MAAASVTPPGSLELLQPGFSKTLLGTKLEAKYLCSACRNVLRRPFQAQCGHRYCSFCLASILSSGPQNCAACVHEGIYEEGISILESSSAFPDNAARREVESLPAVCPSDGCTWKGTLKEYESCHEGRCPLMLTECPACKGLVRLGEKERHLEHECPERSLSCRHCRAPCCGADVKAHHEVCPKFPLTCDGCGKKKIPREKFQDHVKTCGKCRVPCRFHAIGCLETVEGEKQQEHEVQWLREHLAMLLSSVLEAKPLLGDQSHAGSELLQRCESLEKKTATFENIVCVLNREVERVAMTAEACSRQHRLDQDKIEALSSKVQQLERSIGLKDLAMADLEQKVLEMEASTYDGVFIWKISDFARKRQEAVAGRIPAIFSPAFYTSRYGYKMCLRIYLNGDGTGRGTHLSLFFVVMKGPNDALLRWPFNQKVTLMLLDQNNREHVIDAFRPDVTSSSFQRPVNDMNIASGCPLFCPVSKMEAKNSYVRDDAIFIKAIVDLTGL

[6] = molecular target: Death Receptor 4 (human (endogenous in BJELR)) (UniProt O00220); test: co-IP; DR5 knockout BJELR cells, naive or treated with TRAIL for 30 min; DR4 IP from plasma membrane fractions (Figure 7c), RIPK1 IP and TRAF2 IP (Figure 7d, fraction not named in the legend); Western blot
[7] = molecular target: Death Receptor 4 (human (endogenous in BJELR)) (UniProt O00220); test: co-IP; whole-cell lysates (1% Triton X-100, 150 mM NaCl, pH 7.4) of BJELR cells, naive or treated with 1 ug/ml TRAIL for 30 min; antibodies to DR5, DR4, DcR2 or caspase-8 on protein G magnetic beads, overnight at 4 °C; Western blot
[8] = molecular target: Death Receptor 5 (human (endogenous in BJELR)) (UniProt O14763); test: as above
[9] = molecular target: Death Receptor 5 (human (endogenous in BJELR)), O14763; test: co-IP; purified plasma membrane fraction of BJELR cells (also control and DcR2 knockout cells), naive or treated with 1 ug/ml TRAIL for 30 min; antibodies to DR5, RIPK1, TRAF2 or FADD; Western blot; conditions: remark: other sources report otherwise
[10] = molecular target: T4, TRAF2 (TNF receptor-associated factor 2) (human (endogenous in BJELR)), Q12933; test: as above; conditions: remark: other sources report otherwise
T4 chain: T3 sequence

[11] = molecular target: Death Receptor 5 (human (endogenous in BJELR)), O14763; test: co-IP; whole-cell lysates (1% Triton X-100, 150 mM NaCl, pH 7.4) of BJELR cells, naive or treated with 1 ug/ml TRAIL for 30 min; antibodies to DR5, DR4, DcR2 or caspase-8 on protein G magnetic beads, overnight at 4 °C; Western blot; conditions: remark: other sources report otherwise

B1: TRAF2 (TNF receptor-associated factor 2), Q12933 1-501 (protein)
chain: T3 sequence
binding [1]: binds | binding [2]: binds

B2: Decoy Receptor 2 (receptor, UniProt Q9UBN6 56-386)
chain: ATIPRQDEVPQQTVAPQQQRRSLKEEECPAGSHRSEYTGACNPCTEGVDYTIASNNLPSCLLCTVCKSGQTNKSSCTTTRDTVCQCEKGSFQDKNSPEMCRTCRTGCPRGMVKVSNCTPRSDIKCKNESAASSTGKTPAAEETVTTILGMLASPYHYLIIIVVLVIILAVVVVGFSCRKKFISYLKGICSGGGGGPERVHRVLFRRRSCPSRVPGAEDNARNETLSNRYLQPTQVSEQEIQGQELAELTGVTVELPEEPQRLLEQAEAEGCQRRRLLVPVNDADSADISTLLDASATLEEGHAKETIQDQLVGSEKLFYEEDEAGSATSCL
binding [3]: binds | binding [4]: binds | binding [5]: binds | binding [6]: binds weakly | binding [7]: binds | binding [8]: binds

B3: caspase-8, Q14790 1-479 (enzyme)
chain: T2 chain
binding [9]: binds | binding [10]: binds | binding [11]: binds

B4: FADD (Fas-associated protein with death domain), Q13158 1-208 (protein)
chain: MDPFLVLLHSVSSSLSSSELTELKFLCLGRVGKRKLERVQSGLDLFSMLLEQNDLEPGHTELLRELLASLRRHDLLRRVDDFEAGAAAGAAPGEEDLCAAFNVICDNVGKDWRRLARQLKVSDTKIDSIEDRYPRNLTERVRESLRIWKNTEKENATVAHLVGALRSCQMNLVADLVQEVQQARDLQNRSGAMSPMSWNSDASTSEAS
binding [10]: binds
